This note sets out measurements from paper PMC5643558.

Assay [1] concerns the target T1, SFB-PFKP (human) (UniProt Q01813).
T1 sequence: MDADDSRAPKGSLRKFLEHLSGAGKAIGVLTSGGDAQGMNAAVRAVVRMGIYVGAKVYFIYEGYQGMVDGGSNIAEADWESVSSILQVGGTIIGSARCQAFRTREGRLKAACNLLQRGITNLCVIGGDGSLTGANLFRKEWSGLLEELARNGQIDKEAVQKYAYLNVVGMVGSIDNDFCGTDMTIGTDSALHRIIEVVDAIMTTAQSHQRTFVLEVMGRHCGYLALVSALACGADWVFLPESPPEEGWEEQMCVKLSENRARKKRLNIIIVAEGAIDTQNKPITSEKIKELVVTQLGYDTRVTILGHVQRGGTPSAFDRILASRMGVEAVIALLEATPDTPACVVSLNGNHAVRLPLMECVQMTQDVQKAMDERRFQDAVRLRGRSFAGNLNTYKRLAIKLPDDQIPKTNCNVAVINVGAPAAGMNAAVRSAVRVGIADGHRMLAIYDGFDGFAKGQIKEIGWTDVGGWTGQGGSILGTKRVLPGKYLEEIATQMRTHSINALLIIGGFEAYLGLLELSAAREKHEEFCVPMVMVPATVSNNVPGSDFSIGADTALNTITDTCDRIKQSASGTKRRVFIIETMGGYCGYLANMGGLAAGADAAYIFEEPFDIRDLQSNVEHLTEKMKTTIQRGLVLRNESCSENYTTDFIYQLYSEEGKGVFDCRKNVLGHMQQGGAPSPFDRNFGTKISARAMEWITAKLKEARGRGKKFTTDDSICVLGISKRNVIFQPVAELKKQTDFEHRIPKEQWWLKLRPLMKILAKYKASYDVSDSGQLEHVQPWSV
Kind of assay: pull-down; 293T cells co-transfected with SFB-PFKP and WT HA-TRIM21 or its truncation mutants for 24 h; pull-down of SFB-PFKP.

Assay [2] deals with T2, endogenous PFKP (phosphofructokinase 1 platelet isoform) (human (endogenous in U251, U87/EGFR, U87/EGFRvIII and 293T)) (UniProt Q01813).
T2 sequence: T1 sequence
Kind of assay: co-IP; endogenous proteins; immunoprecipitation with an anti-PFKP antibody; serum-starved U251 cells with or without EGF (100 ng/ml) for the indicated times; also U87/EGFR cells.

Results are given in words; binding and its absence hold for the method and conditions named. Binding seen in cells or lysates may run through a third protein. For some assays here: A result given as binding can be weak or reduced; the word gives no strength.

As for “HA-TRIM21 with deletion of the C-terminal SPRY domain (human) (domain or fragment)”, the binding entry in assay [1] is listed as “no binding”.

Regarding “endogenous AKT (human (endogenous in U251 and U87/EGFR))”, the binding result in assay [2] is recorded as “binds”.
